Data as given in US11779592B2, “Inhibition of NGLY1 for the treatment of cancer” (University of North Texas Health Science Center, priority 2017, dated 2023).
Some entries share one result that the patent states for a list of compounds.

B1: NGLY1-shRNA645: NGLY1-targeting shRNA sequence (SEQ ID NO: 5), dox-inducible lentiviral vector; used in the xenograft study (nucleic acid)
DNA: CCGAGUUUCAAAUAACAAUCAAUAGUGAAGCCACAGAUGUAUUGAUUGUUAUUUGAAACUCGAU
B2: NGLY1-shRNA647: NGLY1-targeting shRNA sequence (SEQ ID NO: 6), dox-inducible lentiviral vector (nucleic acid)
DNA: AAAGCAUUACUUCGAGACACUAUAGUGAAGCCACAGAUGUAUAGUGUCUCGAAGUAAUGCUUCU

Tested on: NGLY1
Assay: NGLY1 knockdown efficiency at the RNA level in 293T cells
Format: cell-based, human

Row | Molecule | NGLY1 knockdown efficiency at the RNA level
1 | B1 | more than 85%
2 | B2 | more than 85%
